Assay results taken from article doi:10.1101/2021.07.08.451585.

The chains behind the UniProt entries cited, without tags or fusion partners.
UniProt Q96R06: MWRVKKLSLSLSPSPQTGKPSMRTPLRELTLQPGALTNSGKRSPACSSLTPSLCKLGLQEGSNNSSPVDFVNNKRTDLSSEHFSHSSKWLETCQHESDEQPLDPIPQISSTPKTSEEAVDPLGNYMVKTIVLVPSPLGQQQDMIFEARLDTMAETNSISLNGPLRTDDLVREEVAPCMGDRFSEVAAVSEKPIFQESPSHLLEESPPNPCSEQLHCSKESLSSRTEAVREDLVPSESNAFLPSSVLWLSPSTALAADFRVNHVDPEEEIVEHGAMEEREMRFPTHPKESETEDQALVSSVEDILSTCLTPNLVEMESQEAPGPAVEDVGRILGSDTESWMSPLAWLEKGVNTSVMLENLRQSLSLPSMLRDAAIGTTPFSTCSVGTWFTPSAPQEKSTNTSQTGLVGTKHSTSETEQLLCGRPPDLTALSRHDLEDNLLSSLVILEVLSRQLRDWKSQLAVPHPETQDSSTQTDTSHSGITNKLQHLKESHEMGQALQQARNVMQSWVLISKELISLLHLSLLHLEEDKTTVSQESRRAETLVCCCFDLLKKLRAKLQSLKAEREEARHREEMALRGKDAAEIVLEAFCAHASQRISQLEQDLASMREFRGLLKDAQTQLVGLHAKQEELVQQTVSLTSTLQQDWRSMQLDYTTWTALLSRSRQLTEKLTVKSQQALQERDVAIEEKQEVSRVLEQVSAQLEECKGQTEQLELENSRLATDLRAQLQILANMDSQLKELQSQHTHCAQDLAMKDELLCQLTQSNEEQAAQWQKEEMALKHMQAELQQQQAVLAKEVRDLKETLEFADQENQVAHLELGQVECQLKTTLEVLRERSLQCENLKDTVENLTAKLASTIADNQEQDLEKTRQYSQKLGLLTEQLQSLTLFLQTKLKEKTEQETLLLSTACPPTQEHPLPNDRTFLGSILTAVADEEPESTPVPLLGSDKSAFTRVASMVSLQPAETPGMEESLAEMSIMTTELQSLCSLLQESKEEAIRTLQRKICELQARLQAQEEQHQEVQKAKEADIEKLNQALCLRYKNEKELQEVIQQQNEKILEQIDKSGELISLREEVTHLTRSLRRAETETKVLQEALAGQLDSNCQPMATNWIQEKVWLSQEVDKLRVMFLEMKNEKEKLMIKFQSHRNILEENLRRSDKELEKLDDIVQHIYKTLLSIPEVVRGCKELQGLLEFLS

Tests used:
[1] = molecular target: T1, mouse CLUH (mCLUH) protein fused, in N-terminal, to a modified biotin ligase protein (BioID2-CLUH) (mouse) (UniProt Q5SW19); test: proximity labelling
T1 sequence: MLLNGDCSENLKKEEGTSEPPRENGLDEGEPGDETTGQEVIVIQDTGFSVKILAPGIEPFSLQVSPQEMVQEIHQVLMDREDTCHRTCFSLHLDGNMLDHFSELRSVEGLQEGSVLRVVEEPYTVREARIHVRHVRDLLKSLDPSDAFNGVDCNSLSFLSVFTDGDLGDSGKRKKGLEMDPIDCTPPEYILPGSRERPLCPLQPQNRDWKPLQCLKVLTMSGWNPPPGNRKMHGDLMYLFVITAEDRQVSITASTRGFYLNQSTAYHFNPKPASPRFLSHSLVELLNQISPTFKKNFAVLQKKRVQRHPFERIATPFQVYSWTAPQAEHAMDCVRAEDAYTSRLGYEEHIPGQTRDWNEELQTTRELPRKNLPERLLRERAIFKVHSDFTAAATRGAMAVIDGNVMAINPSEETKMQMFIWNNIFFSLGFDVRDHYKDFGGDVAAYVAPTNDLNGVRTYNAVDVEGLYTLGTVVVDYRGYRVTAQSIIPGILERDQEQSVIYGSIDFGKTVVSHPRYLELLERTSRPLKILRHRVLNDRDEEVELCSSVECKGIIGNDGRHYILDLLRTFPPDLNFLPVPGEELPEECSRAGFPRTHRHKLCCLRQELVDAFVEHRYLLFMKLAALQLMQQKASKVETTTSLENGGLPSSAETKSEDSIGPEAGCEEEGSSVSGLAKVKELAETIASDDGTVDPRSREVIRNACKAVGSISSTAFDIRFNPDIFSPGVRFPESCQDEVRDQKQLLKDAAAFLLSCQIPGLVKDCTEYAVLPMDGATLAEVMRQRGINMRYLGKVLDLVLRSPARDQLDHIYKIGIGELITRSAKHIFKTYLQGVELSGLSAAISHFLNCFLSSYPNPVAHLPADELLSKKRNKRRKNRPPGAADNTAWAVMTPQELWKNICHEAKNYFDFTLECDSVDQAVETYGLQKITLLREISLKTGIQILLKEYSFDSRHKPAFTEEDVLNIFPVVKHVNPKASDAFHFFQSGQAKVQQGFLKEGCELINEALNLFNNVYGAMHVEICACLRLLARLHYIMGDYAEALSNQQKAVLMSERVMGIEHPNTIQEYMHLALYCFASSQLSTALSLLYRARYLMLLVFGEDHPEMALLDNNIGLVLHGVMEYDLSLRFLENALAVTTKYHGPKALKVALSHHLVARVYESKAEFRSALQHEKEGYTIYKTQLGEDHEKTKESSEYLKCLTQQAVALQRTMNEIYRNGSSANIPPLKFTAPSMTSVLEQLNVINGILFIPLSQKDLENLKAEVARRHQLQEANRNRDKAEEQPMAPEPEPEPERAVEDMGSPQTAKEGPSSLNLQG

[2] = molecular target: T2, human CLUH fused to TurboID in N-terminal (TurboID-CLUH) (human) (UniProt O75153); test: proximity labelling
T2 sequence: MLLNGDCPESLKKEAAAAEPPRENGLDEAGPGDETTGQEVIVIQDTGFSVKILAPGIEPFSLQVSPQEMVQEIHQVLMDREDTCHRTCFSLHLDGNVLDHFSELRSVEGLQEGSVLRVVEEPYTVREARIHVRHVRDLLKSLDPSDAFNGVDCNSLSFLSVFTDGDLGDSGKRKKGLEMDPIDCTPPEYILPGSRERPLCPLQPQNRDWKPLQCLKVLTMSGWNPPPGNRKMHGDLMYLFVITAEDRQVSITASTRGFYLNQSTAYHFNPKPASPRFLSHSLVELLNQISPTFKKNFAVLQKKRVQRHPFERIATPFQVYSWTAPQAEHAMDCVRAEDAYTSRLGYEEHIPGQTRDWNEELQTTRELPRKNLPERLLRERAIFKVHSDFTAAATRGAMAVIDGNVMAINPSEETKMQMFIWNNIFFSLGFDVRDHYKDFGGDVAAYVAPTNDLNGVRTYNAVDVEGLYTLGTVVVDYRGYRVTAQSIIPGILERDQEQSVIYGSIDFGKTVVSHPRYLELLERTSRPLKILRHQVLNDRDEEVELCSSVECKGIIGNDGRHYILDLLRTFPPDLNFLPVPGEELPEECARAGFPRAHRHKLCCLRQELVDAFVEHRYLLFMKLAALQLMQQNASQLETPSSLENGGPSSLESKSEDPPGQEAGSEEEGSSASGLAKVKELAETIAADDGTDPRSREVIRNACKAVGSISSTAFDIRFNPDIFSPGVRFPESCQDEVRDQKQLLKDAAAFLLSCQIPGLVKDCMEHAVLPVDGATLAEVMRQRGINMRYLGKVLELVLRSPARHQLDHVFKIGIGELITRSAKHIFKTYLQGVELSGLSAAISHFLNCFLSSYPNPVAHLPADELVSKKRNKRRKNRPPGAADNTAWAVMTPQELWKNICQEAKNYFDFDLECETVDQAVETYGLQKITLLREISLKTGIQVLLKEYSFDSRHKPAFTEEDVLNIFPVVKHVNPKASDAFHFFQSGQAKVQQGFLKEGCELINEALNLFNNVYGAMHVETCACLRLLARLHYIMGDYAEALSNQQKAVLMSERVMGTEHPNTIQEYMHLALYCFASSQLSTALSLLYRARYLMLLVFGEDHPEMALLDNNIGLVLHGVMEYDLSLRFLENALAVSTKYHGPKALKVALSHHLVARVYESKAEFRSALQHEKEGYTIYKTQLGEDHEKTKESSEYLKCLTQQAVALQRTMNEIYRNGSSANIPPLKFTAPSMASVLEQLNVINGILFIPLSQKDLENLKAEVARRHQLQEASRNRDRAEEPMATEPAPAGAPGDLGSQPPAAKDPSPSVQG

[3] = molecular target: T3, BioID2-tagged wildtype human CLUH (BioID2-3xHA-CLUH) (human) (UniProt O75153); test: proximity labelling
T3 sequence: T2 sequence

[4] = molecular target: T4, mouse CLUH (mCLUH) protein tagged with a triple HA epitope (3xHA) (mouse) (UniProt Q5SW19); test: affinity purification with mass spectrometry
T4 sequence: T1 sequence

[5] = molecular target: T5, endogenously 3xHA-tagged CLUH protein of mouse embryonic stem cells (mouse (endogenous in mESC)) (UniProt Q5SW19); test: affinity purification with mass spectrometry
T5 sequence: T1 sequence

binding [1]: binds
binding [2]: binds
binding [3]: binds
binding [4]: binds
Molecule: SPAG5, endogenous in HCT116 cells (from UniProt Q96R06 1-1193)

binding [5]: binds
B1: KNSTRN, endogenous in mouse embryonic stem cells (protein, UniProt Q9D9Z1 1-312)
chain: MAAPEAEAQETAFRTTGPPTDSEPRPFPPSSRKFPFESAAADSNEDWAVAAEHYLKGSGENGGWEQPAPGVQPSHPATMASAKTVCDAQPHSMPSCGLPADTQTRATSKLPVKSKEADLLRHLHPGGPEPDVTKVTKSRRENGQVKAAETASRRNLRNSYKPFNKQKPEEELKDKNELLEAVNKQLHQKLTETQGELKDLTQKVELLEKFQDNCLALLESKGLNPGQETLASKQEPTTDHTDSMLLLETLKDELKVFNETAKKQMEELQALKVKLKLKEEESVQFLEQQTLCKDEASDFTIILEEMEQLLEM

binding [1]: binds
binding [2]: binds
binding [4]: binds
B2: KNSTRN, endogenous in HCT116 cells (protein, UniProt Q9Y448 1-316)
chain: MAAPEAPPLDRVFRTTWLSTECDSHPLPPSYRKFLFETQAADLAGGTTVAAGNLLNESEKDCGQDRRAPGVQPCRLVTMTSVVKTVYSLQPPSALSGGQPADTQTRATSKSLLPVRSKEVDVSKQLHSGGPENDVTKITKLRRENGQMKATDTATRRNVRKGYKPLSKQKSEEELKDKNQLLEAVNKQLHQKLTETQGELKDLTQKVELLEKFRDNCLAILESKGLDPALGSETLASRQESTTDHMDSMLLLETLQEELKLFNETAKKQMEELQALKVKLEMKEERVRFLEQQTLCNNQVNDLTTALKEMEQLLEM

binding [5]: binds
B3: SPAG5, endogenous in mouse embryonic stem cells (protein, UniProt Q7TME2 1-1165)
chain: MWRVKTLNLGLSPSPQKGKPAMSTPLRELKLQPEALADSGKGPSMISALTPYLCRLELKERCNNSSPVDFINTENNFLSEQFSHPSTHIEACQRESDPTPESNSLFHTLEEAIETVDDFVVDPRDDSIVESMVLLPFSLGQQQDLMLQAHLDTTAERTKSSLNESLGLEDLVGKEVAPCVEDSLTEIVAIRPEQPTFQDPPLGPSDTEDAPVDLVPSENVLNFSLARLSPSAVLAQDFSVDHVDPGEETVENRVLQEMETSFPTFPEEAELGDQAPAANAEAVSPLYLTSSLVEMGPREAPGPTVEDASRIPGLESETWMSPLAWLEKGVNTSVMLQNLRQSLSFSSVLQDAAVGNTPLATCSVGTSFTPPAPLEVGTKDSTSETERLLLGCRPPDLATLSRHDLEENLLNSLVLLEVLSHQLQAWKSQLTVPHREARDSSTQTDSSPCGVTKTPKHLQDSKEIRQALLQARNVMQSWGLVSGDLLSLLHLSLTHVQEGRVTVSQESQRSKTLVSSCSRVLKKLKAKLQSLKTECEEARHSKEMALKGKAAAEAVLEAFRAHASQRISQLEQGLTSMQEFRGLLQEAQTQLIGLHTEQKELAQQTVSLSSALQQDWTSVQLNYGIWAALLSWSRELTKKLTAKSRQALQERDAAIEEKKQVVKEVEQVSAHLEDCKGQIEQLKLENSRLTADLSAQLQILTSTESQLKEVRSQHSRCVQDLAVKDELLCQLTQSNKEQATQWQKEEMELKHIQAELLQQQAVLAKEVQDLRETVEFIDEESQVAHRELGQIESQLKVTLELLRERSLQCETLRDTVDSLRAELASTEAKHEKQALEKTHQHSQELRLLAEQLQSLTLFLQAKLKENKAESEIILPSTGSAPAQEHPLSNDSSISEQTPTAAVDEVPEPAPVPLLGSVKSAFTRVASMASFQPTETPDLEKSLAEMSTVLQELKSLCSLLQESKEEATGVLQREICELHSRLQAQEEEHQEALKAKEADMEKLNQALCLLRKNEKELLEVIQKQNEKILGQIDKSGQLINLREEVTQLTQSLRRAETETKVLQEALEGQLDPSCQLMATNWIQEKVFLSQEVSKLRVMFLEMKTEKEQLMDKYLSHRHILEENLRRSDTELKKLDDTIQHVYETLLSIPETMKSCKELQGLLEFLS

No constants are given. Whether binding was seen depends on the method and setting. In cells and extracts the contact can be indirect. A yes stands for co-enrichment or nearness to the bait. Other partners may have been found. Tags and fused reporters may be left off the sequences shown. Each block holds one molecule with its values, some of them ahead of it.
